# Reference: the supplement of paper PMC10849652
# Protein sequences, listed by entry. Tags and fused reporters are not part of them. Lines headed by an entry give the natural chain unless they say otherwise; changes in a name come on top.
# UniProt Q86WA6: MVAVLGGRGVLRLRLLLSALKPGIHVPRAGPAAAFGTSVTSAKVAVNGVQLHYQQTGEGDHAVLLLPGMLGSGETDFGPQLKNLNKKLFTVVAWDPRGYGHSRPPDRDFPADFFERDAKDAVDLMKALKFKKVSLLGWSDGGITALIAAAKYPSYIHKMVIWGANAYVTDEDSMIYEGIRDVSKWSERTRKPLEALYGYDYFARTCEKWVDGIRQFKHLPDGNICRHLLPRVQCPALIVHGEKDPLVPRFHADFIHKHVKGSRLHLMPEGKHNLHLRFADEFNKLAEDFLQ
# UniProt Q6QNY1: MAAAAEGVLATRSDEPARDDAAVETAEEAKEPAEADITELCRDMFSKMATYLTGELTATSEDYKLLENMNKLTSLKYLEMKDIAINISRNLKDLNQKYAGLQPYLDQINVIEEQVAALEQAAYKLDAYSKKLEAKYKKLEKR
# UniProt Q5VW32: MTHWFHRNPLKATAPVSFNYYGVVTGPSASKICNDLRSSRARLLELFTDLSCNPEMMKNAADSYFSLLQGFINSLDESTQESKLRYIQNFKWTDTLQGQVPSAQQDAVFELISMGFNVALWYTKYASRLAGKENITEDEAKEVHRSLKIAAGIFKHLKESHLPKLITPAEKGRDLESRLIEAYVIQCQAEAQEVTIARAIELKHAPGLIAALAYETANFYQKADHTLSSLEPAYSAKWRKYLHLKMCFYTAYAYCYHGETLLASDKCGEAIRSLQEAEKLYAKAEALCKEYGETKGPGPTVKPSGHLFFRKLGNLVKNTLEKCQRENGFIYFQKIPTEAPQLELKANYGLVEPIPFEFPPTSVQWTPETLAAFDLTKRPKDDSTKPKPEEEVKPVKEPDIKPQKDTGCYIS
# UniProt Q6QNY0: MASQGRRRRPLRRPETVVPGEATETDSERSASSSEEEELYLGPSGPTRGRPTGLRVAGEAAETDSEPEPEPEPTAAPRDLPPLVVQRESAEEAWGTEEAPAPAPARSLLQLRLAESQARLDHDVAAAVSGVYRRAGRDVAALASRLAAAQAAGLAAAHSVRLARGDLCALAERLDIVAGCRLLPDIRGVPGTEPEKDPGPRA
# UniProt Q12981: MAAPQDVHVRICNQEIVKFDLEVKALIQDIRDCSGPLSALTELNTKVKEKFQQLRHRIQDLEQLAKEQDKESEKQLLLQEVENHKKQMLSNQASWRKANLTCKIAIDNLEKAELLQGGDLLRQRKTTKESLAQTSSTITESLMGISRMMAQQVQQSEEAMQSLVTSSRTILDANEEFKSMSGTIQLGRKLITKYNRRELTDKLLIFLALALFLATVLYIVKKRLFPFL
# UniProt Q99728: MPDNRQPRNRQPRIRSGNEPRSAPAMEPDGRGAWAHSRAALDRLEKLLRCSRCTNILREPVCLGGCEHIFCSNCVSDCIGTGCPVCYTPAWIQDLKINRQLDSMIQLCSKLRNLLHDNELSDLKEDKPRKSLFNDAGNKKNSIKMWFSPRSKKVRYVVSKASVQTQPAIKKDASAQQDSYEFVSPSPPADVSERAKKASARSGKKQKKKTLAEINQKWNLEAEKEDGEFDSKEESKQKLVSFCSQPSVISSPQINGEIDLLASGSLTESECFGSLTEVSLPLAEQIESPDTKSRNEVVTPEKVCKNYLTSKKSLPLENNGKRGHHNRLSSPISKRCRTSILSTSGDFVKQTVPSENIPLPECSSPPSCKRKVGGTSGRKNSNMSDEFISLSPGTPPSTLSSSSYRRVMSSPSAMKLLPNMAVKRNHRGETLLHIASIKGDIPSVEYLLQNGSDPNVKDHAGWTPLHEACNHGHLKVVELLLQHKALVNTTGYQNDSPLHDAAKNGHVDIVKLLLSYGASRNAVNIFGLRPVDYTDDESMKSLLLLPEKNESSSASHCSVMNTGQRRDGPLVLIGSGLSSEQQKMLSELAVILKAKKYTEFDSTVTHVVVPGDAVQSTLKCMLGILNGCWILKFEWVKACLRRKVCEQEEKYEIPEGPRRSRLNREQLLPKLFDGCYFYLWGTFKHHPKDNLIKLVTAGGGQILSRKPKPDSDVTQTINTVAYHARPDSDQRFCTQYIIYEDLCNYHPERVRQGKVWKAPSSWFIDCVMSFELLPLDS
# UniProt Q9Y276: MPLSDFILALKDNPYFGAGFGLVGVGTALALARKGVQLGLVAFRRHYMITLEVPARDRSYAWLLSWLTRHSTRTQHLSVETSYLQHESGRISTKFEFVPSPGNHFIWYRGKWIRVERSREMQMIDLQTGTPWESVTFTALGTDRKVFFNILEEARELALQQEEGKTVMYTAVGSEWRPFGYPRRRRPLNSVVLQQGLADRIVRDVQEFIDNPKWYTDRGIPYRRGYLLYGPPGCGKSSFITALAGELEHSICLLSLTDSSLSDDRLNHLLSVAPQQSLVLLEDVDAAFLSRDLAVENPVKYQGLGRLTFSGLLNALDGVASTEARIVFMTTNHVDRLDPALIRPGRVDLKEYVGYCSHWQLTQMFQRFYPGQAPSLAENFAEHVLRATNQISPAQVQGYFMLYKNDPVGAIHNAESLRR
# UniProt Q9NW68: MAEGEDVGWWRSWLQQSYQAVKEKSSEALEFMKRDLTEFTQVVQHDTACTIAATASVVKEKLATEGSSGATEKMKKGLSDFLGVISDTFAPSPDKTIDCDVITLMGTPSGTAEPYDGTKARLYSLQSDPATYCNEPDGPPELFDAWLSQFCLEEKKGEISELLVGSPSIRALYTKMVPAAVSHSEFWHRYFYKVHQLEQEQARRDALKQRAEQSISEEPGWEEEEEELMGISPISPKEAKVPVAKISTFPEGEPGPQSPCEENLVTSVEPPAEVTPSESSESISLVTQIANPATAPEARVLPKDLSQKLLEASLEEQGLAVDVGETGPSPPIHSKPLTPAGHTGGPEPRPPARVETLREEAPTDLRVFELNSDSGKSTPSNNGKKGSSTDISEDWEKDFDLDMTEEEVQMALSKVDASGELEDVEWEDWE
# UniProt Q8WUW1: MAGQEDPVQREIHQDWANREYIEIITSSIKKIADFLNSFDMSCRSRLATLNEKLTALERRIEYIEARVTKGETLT
# UniProt Q9H6U6: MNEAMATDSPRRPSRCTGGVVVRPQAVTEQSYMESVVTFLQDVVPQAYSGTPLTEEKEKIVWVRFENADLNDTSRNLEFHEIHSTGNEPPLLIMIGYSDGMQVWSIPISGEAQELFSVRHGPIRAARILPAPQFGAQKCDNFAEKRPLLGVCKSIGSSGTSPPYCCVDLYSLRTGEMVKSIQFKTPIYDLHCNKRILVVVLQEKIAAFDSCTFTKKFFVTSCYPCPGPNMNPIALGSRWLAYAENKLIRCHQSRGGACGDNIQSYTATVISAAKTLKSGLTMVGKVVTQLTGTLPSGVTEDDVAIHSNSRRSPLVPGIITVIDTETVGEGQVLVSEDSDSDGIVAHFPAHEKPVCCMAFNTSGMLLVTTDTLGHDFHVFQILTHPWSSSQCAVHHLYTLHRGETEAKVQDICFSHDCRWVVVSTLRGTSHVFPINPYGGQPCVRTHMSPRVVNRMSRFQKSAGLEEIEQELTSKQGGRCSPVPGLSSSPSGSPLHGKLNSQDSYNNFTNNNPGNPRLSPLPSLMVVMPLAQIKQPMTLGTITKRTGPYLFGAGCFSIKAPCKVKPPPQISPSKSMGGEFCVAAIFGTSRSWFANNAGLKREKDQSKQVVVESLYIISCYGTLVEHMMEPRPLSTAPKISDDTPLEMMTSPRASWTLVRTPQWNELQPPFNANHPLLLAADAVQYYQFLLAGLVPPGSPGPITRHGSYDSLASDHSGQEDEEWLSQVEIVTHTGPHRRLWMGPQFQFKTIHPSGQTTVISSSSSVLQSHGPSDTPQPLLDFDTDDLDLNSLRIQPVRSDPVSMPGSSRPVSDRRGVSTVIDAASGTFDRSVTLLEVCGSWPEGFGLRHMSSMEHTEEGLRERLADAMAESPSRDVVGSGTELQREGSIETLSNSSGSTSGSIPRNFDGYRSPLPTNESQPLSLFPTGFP
# UniProt Q9H3K6: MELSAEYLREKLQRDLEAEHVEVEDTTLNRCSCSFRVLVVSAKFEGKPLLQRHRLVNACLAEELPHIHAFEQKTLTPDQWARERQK
# UniProt Q9BXH1: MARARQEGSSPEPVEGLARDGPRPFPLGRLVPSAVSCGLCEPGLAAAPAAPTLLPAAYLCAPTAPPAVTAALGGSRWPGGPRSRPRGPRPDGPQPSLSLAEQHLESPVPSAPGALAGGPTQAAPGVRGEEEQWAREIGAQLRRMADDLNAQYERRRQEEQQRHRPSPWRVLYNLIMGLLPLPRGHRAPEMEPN
# UniProt P07738: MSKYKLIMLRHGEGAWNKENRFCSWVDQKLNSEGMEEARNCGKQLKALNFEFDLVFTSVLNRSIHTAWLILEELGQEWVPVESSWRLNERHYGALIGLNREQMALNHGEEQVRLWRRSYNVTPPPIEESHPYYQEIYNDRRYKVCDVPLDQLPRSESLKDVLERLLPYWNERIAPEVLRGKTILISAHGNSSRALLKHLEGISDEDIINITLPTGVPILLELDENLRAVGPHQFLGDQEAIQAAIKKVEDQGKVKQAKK
# UniProt O95817, whole entry, looked up: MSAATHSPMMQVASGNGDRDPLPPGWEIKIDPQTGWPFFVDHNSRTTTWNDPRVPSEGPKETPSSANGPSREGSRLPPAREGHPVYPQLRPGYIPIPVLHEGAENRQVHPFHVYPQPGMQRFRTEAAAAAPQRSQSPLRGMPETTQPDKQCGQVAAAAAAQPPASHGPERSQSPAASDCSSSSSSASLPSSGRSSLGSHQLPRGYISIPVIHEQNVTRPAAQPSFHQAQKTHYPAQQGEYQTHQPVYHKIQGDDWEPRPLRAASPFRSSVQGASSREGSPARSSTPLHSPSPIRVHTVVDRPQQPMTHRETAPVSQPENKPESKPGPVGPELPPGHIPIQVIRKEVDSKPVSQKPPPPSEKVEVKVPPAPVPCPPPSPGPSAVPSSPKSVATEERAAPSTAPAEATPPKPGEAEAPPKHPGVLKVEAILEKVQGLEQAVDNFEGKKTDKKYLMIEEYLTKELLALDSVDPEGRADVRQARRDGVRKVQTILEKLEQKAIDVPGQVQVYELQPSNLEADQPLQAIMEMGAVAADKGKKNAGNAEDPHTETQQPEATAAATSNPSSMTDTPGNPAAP
# UniProt O75531: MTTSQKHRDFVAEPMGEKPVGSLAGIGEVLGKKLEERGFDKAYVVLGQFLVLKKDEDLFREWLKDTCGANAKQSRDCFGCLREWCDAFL
# UniProt Q9BXK5, whole entry, looked up: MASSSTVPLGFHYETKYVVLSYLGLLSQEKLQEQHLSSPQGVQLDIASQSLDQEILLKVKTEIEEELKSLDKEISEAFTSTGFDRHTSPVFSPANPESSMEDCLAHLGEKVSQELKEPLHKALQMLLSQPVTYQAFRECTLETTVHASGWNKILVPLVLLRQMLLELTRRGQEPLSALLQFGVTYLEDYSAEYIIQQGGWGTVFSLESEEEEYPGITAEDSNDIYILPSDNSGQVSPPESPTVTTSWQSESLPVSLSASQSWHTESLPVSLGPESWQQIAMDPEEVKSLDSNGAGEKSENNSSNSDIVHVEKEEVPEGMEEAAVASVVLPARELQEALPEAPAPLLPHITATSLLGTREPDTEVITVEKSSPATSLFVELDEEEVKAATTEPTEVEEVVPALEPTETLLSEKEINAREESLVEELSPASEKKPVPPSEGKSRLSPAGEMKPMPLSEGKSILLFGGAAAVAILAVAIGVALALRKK
# UniProt P10415, whole entry, looked up: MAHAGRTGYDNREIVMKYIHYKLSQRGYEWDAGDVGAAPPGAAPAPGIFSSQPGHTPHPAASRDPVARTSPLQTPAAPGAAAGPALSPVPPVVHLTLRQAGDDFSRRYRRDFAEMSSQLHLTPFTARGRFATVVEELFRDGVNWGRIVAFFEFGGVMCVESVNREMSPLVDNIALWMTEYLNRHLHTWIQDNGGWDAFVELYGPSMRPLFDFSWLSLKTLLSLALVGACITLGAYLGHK
# UniProt Q14137: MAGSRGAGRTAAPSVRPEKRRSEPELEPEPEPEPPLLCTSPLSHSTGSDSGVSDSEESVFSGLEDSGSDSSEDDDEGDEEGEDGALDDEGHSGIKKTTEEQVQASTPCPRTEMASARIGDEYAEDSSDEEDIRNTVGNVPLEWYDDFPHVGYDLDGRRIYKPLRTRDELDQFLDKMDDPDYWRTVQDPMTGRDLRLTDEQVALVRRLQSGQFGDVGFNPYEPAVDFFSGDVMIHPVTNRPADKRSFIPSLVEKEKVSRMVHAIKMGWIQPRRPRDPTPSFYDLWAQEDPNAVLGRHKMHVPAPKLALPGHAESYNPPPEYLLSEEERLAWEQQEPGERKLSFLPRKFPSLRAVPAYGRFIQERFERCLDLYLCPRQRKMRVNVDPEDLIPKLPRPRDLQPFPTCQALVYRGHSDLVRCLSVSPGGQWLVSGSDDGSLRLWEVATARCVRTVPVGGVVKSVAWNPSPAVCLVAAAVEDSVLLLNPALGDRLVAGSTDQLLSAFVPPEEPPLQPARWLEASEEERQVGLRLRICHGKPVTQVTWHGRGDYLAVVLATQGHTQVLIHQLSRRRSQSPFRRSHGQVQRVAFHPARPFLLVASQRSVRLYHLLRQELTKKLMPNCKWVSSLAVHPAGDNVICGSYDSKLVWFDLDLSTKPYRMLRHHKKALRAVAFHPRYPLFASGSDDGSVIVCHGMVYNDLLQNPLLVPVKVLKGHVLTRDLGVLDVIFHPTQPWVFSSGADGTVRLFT
# The list shows a part of the results.
# Compound: CC1=C(SC2=C1C(=N[C@H](C3=NN=C(N32)C)CC(=O)N)C4=CC=C(C=C4)Cl)C
# Experiment: log2 fold change, soluble protein after heating vs DMSO (PISA); higher = thermal stabilisation; K562 lysate, 10 uM; active = over 0.2 and 3.5 SD of the protein, either way, in both replicates (recomputed)
# Procedure, shortened: (§1)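 K562 pellets were dounce-homogenised in PBS pH 7.4 containing 1 mM MgCl2, and the crude extract, at 1 mg/mL protein, was exposed to 10 μM compound for 30 min. Aliquots were heated for 3 min across 48°C-58°C, pooled, brought to 0.5% NP-40 at 4°C and spun at 21,000xg for 90 min, with the supernatant taken as soluble protein. TMTpro 16plex LC-MS/MS with equalised channel sums quantified that protein. Values are log-two fold changes in thermal stability relative to solvent controls, taken from duplicates.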
row,Target,log2 fold change
1,BCL2L12 (UniProt Q9HB09),inactive: 0.119
2,BAG4 (UniProt O95429),inactive: 0.021
3,BPHL (UniProt Q86WA6),inactive: 0.038
4,BLOC1S2 (UniProt Q6QNY1),inactive: 0.071
5,BCL9L (UniProt Q86UU0),inactive: -0.015
6,BLOC1S6 (UniProt Q9UL45),inactive: 0.035
7,BROX (UniProt Q5VW32),inactive: 0.002
8,BAIAP2L1 (UniProt Q9UHR4),inactive: -0.031
9,BLOC1S3 (UniProt Q6QNY0),inactive: -0.004
10,BNIP1 (UniProt Q12981),inactive: -0.051
11,BPNT1 (UniProt A6NF51),inactive: -0.019
12,BCOR (UniProt Q6W2J9),inactive: 0.096
13,BPTF (UniProt Q12830),inactive: -0.017
14,BAG2 (UniProt O95816),inactive: 0.002
15,BTF3L4 (UniProt Q96K17),inactive: -0.07
16,BARD1 (UniProt Q99728),inactive: -0.089
17,BCS1L (UniProt Q9Y276),inactive: 0.044
18,BRD4 (UniProt O60885),active: 0.868
19,BICD2 isoform 2 (UniProt Q8TD16),inactive: 0.026

row,Target,log2 fold change
1,BLOC1S5 (UniProt Q8TDH9),inactive: -0.022
2,BCR (UniProt P11274),inactive: 0.005
3,BSDC1 (UniProt Q9NW68),inactive: -0.025
4,BRK1 isoform 2 (UniProt Q8WUW1),inactive: -0.043
5,BAG1 (UniProt Q99933),inactive: -0.011
6,BCAS3 isoform 8 (UniProt Q9H6U6),inactive: 0.016
7,BOLA2 (UniProt Q9H3K6),inactive: 0.01
8,BRD3 (UniProt Q15059),active: 0.631
9,BBC3 (UniProt Q9BXH1),inactive: 0.087
10,BPGM (UniProt P07738),inactive: -0.041
11,BAD (UniProt Q92934),inactive: 0
12,BAZ1A (UniProt Q9NRL2),inactive: 0.007
13,BAP1 (UniProt Q92560),inactive: 0.074
14,BAG3 (UniProt O95817),inactive: 0.023
15,BANF1 (UniProt O75531),inactive: -0.024
16,BCL2L13 (UniProt Q9BXK5),inactive: -0.006
17,BCL2 (UniProt P10415),inactive: 0.032
18,BRI3BP (UniProt Q8WY22),inactive: 0.121
19,BOP1 (UniProt Q14137),inactive: 0.017

# Compound: CC1=C2C(=CC=C1)N=C(N(C2=O)C3=CC=CC=C3C)CN4C=NC5=C(N=CN=C54)N
# Experiment: as above
# Procedure, shortened: as §1
row,Target,log2 fold change
1,BCL2L12 (UniProt Q9HB09),inactive: 0.035
2,BAG4 (UniProt O95429),inactive: -0.023
3,BPHL (UniProt Q86WA6),inactive: -0.028
4,BLOC1S2 (UniProt Q6QNY1),inactive: -0.09
5,BCL9L (UniProt Q86UU0),inactive: -0.031
6,BLOC1S6 (UniProt Q9UL45),inactive: -0.04
7,BROX (UniProt Q5VW32),inactive: -0.007
8,BAIAP2L1 (UniProt Q9UHR4),inactive: -0.029
9,BLOC1S3 (UniProt Q6QNY0),inactive: 0.026
10,BNIP1 (UniProt Q12981),inactive: 0.001
11,BPNT1 (UniProt A6NF51),inactive: -0.076
12,BCOR (UniProt Q6W2J9),inactive: -0.107
13,BPTF (UniProt Q12830),inactive: -0.02
14,BAG2 (UniProt O95816),inactive: -0.013
15,BTF3L4 (UniProt Q96K17),inactive: -0.021
16,BARD1 (UniProt Q99728),inactive: -0.042
17,BCS1L (UniProt Q9Y276),inactive: 0.052
18,BRD4 (UniProt O60885),inactive: 0.003
19,BICD2 isoform 2 (UniProt Q8TD16),inactive: 0

row,Target,log2 fold change
1,BLOC1S5 (UniProt Q8TDH9),inactive: -0.018
2,BCR (UniProt P11274),inactive: -0.014
3,BSDC1 (UniProt Q9NW68),inactive: 0.021
4,BRK1 isoform 2 (UniProt Q8WUW1),inactive: -0.011
5,BAG1 (UniProt Q99933),inactive: -0.009
6,BCAS3 isoform 8 (UniProt Q9H6U6),inactive: 0.05
7,BOLA2 (UniProt Q9H3K6),inactive: -0.019
8,BRD3 (UniProt Q15059),inactive: 0.112
9,BBC3 (UniProt Q9BXH1),inactive: 0.07
10,BPGM (UniProt P07738),inactive: 0.076
11,BAD (UniProt Q92934),inactive: -0.036
12,BAZ1A (UniProt Q9NRL2),inactive: 0.005
13,BAP1 (UniProt Q92560),inactive: 0.011
14,BAG3 (UniProt O95817),inactive: -0.016
15,BANF1 (UniProt O75531),inactive: 0.167
16,BCL2L13 (UniProt Q9BXK5),inactive: 0.029
17,BRI3BP (UniProt Q8WY22),inactive: 0.009
18,BOP1 (UniProt Q14137),inactive: 0
